Laboratory results: patent publication US10464947B2 (Incyte Corporation, priority 2013, dated 2019)
Where a name gives a salt, the structure may show the parent alone.

Tested on: KMS.12.BM cells
Assay: KMS.12.BM Cell Viability Assay (Example B1)
Format: cell-based
Details: Homo sapiens, 72 h, read-out: KMS cellular IC50 (nM)
Protocol: KMS.12.BM cell line (human myeloma) was purchased from JCRB (Osaka, Japan) and maintained in RPMI with 10% FBS culture medium. To measure the cytotoxic activity of the compounds through ATP quantitation, the KMS.12.BM cells are plated in the RPMI culture medium at 5000 cells/well/per 100 μL into a 96-well polystyrene clear black tissue culture plate (Greiner-bio-one through VWR, NJ), in the presence or absence of a concentration range of test compounds. After 3 days, […] Cell Titer-GLO Luminescent (Promega, Madison, Wis.) cell culture agent is added to each well for 10 min. at room temperature to stabilize the luminescent signal. This determines the number of viable cells in culture based on quantitation of the ATP present, which signals the presence of metabolically active cells.

| Compound | IC50 [nM] |
| --- | --- |
| Cc1noc(C)c1-c1ccc2nc(N3CC[C@@H](N)C3)n3c2c1OC[C@@H]3c1ccccn1 [Example 202A, (3R)-1-[(4S)-7-(3,5-dimethylisoxazol-4-yl)-4-pyridin-2-yl-4,5-dihydroimidazo[1,5,4-de][1,4]benzoxazin-2-yl]pyrrolidin-3-amine trihydrochloride] | < 1000 |
| Cc1noc(C)c1-c1ccc2nc(N3CC[C@H](N)C3)n3c2c1OC[C@@H]3c1ccccn1 [Example 202B, (3S)-1-[(4S)-7-(3,5-dimethylisoxazol-4-yl)-4-pyridin-2-yl-4,5-dihydroimidazo[1,5,4-de][1,4]benzoxazin-2-yl]pyrrolidin-3-amine trihydrochloride] | < 1000 |
